{"source": "the supplement of paper PMC8728848", "binders": {"B1": {"name": "Aap lectin (Staphylococcus epidermidis) (protein)", "chain": "VNLNYSSPFMSLLSMPADSSSNNTKNTIDIPPTTVKGRDNYDFYGRVDIESNPTDLNATNLTRYNYGQPPGTTTAGAVQFKNQVSFDKDFDFNIRVANNRQSNTTGADGWGFMFSKKDGDDFLKNGGILREKGTPSAAGFRIDTGYYNNDPLDKIQKQAGQGYRGYGTFVKNDSQGNTSKVGSGTPSTDFLNYADNTTNDLDGKFHGQKLNNVNLKYNASNQTFTATYAGKTWTATLSELGLSPTDSYNFLVTSS"}}, "assay_in_all_cases": "glycan array binding signal (z-score within array); higher = stronger binding", "settings_in_all_cases": "glycan notation: IUPAC condensed, linker removed", "key": {"GlcNAc(b1-3)Man": {"biological_target": "GlcNAc(b1-3)Man", "method_in_brief": "(§1)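 Columns mapping to the same glycan were averaged after glycan names were converted to IUPAC-condensed notation. The data come from 3228 arrays in the Consortium for Functional Glycomics database, limited to those with an available protein sequence. Binding is reported as a within-array Z-score averaged across arrays of one protein sequence and across linkers.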"}, "[1]": {"biological_target": "GlcNAc(b1-3)[GlcNAc(b1-4)][GlcNAc(b1-6)]GlcNAc", "method_in_brief": "as §1"}, "[2]": {"biological_target": "GlcNAc(b1-3)[GlcNAc(b1-6)]Gal(b1-4)GlcNAc", "method_in_brief": "as §1"}, "[3]": {"biological_target": "GlcNAc(b1-3)[GlcNAc(b1-6)]GalNAc", "method_in_brief": "as §1"}, "[4]": {"biological_target": "GlcNAc(b1-4)Gal(b1-4)GlcNAc", "method_in_brief": "as §1"}, "GlcNAc(b1-4)GlcNAc": {"biological_target": "GlcNAc(b1-4)GlcNAc", "method_in_brief": "as §1"}, "[5]": {"biological_target": "GlcNAc(b1-4)GlcNAc(b1-4)GlcNAc", "method_in_brief": "as §1"}, "[6]": {"biological_target": "GlcNAc(b1-4)GlcNAc(b1-4)GlcNAc(b1-4)GlcNAc(b1-4)GlcNAc", "method_in_brief": "as §1"}, "[7]": {"biological_target": "GlcNAc(b1-4)GlcNAc(b1-4)GlcNAc(b1-4)GlcNAc(b1-4)GlcNAc(b1-4)GlcNAc", "method_in_brief": "as §1"}, "[8]": {"biological_target": "GlcNAc(b1-4)[GlcNAc(b1-6)]GalNAc", "method_in_brief": "as §1"}, "[9]": {"biological_target": "GlcNAc(b1-6)Gal(b1-4)GlcNAc", "method_in_brief": "as §1"}, "GlcNAc(b1-6)GalNAc": {"biological_target": "GlcNAc(b1-6)GalNAc", "method_in_brief": "as §1"}, "[10]": {"biological_target": "GlcNAc6S(b1-3)Gal(b1-4)GlcNAc", "method_in_brief": "as §1"}, "Kdn(a2-3)Gal(b1-3)GalNAc": {"biological_target": "Kdn(a2-3)Gal(b1-3)GalNAc", "method_in_brief": "as §1"}, "Kdn(a2-3)Gal(b1-3)GlcNAc": {"biological_target": "Kdn(a2-3)Gal(b1-3)GlcNAc", "method_in_brief": "as §1"}, "Kdn(a2-3)Gal(b1-4)Glc": {"biological_target": "Kdn(a2-3)Gal(b1-4)Glc", "method_in_brief": "as §1"}, "Kdn(a2-3)Gal(b1-4)GlcNAc": {"biological_target": "Kdn(a2-3)Gal(b1-4)GlcNAc", "method_in_brief": "as §1"}, "[11]": {"biological_target": "Kdn(a2-3)Gal(b1-4)[Fuc(a1-3)]GlcNAc", "method_in_brief": "as §1"}, "Kdn(a2-6)Gal(b1-4)GlcNAc": {"biological_target": "Kdn(a2-6)Gal(b1-4)GlcNAc", "method_in_brief": "as §1"}, "[12]": {"biological_target": "Man(a1-2)Man(a1-2)Man(a1-3)Man", "method_in_brief": "as §1"}, "[13]": {"biological_target": "Man(a1-2)Man(a1-2)Man(a1-6)[Man(a1-3)]Man", "method_in_brief": "as §1"}, "Man(a1-2)Man(a1-3)Man": {"biological_target": "Man(a1-2)Man(a1-3)Man", "method_in_brief": "as §1"}, "[14]": {"biological_target": "Man(a1-2)Man(a1-3)[Man(a1-2)Man(a1-6)]Man", "method_in_brief": "as §1"}, "[15]": {"biological_target": "Man(a1-2)Man(a1-3)[Man(a1-2)Man(a1-6)]Man(a1-6)[Man(a1-2)Man(a1-2)Man(a1-3)]Man", "method_in_brief": "as §1"}, "[16]": {"biological_target": "Man(a1-2)Man(a1-3)[Man(a1-2)Man(a1-6)]Man(a1-6)[Man(a1-2)Man(a1-2)Man(a1-3)]Man(b1-4)GlcNAc(b1-4)GlcNAc", "method_in_brief": "as §1"}, "[17]": {"biological_target": "Man(a1-2)Man(a1-3)[Man(a1-6)]Man(a1-6)[Man(a1-2)Man(a1-3)]Man(b1-4)GlcNAc(b1-4)GlcNAc", "method_in_brief": "as §1"}, "[18]": {"biological_target": "Man(a1-2)Man(a1-6)[Man(a1-3)]Man(a1-6)[Man(a1-2)Man(a1-2)Man(a1-3)]Man", "method_in_brief": "as §1"}, "[19]": {"biological_target": "Man(a1-2)Man(a1-6)[Man(a1-3)]Man(a1-6)[Man(a1-2)Man(a1-2)Man(a1-3)]Man(b1-4)GlcNAc(b1-4)GlcNAc", "method_in_brief": "as §1"}, "Man(a1-3)[Man(a1-6)]Man": {"biological_target": "Man(a1-3)[Man(a1-6)]Man", "method_in_brief": "as §1"}, "[20]": {"biological_target": "Man(a1-3)[Man(a1-6)]Man(a1-6)[Man(a1-2)Man(a1-3)]Man(b1-4)GlcNAc(b1-4)GlcNAc", "method_in_brief": "as §1"}, "[21]": {"biological_target": "Man(a1-3)[Man(a1-6)]Man(a1-6)[Man(a1-3)]Man", "method_in_brief": "as §1"}, "[22]": {"biological_target": "Man(a1-3)[Man(a1-6)]Man(a1-6)[Man(a1-3)]Man(b1-4)GlcNAc(b1-4)GlcNAc", "method_in_brief": "as §1"}, "[23]": {"biological_target": "Man(a1-3)[Man(a1-6)]Man(b1-4)GlcNAc(b1-4)GlcNAc", "method_in_brief": "as §1"}, "[24]": {"biological_target": "Man(a1-3)[Man(a1-6)]Man(b1-4)GlcNAc(b1-4)[Fuc(a1-6)]GlcNAc", "method_in_brief": "as §1"}, "Man(a1-6)Man": {"biological_target": "Man(a1-6)Man", "method_in_brief": "as §1"}, "Man(b1-4)GlcNAc": {"biological_target": "Man(b1-4)GlcNAc", "method_in_brief": "as §1"}, "MurNAc(b1-4)GlcNAc": {"biological_target": "MurNAc(b1-4)GlcNAc", "method_in_brief": "as §1"}, "Neu5Ac(a2-3)Gal": {"biological_target": "Neu5Ac(a2-3)Gal", "method_in_brief": "as §1"}}, "note": "This is one part of the list."}
{"binder": "B1", "values": [{"measurement": "glycan array binding signal (z-score)", "setting": "GlcNAc(b1-3)Man", "value": -0.471}, {"measurement": "glycan array binding signal (z-score)", "setting": "[1]", "value": -0.92}, {"measurement": "glycan array binding signal (z-score)", "setting": "[2]", "value": -0.895}, {"measurement": "glycan array binding signal (z-score)", "setting": "[3]", "value": 0.321}, {"measurement": "glycan array binding signal (z-score)", "setting": "[4]", "value": -0.856}, {"measurement": "glycan array binding signal (z-score)", "setting": "GlcNAc(b1-4)GlcNAc", "value": 0.252}, {"measurement": "glycan array binding signal (z-score)", "setting": "[5]", "value": -0.883}, {"measurement": "glycan array binding signal (z-score)", "setting": "[6]", "value": -0.856}, {"measurement": "glycan array binding signal (z-score)", "setting": "[7]", "value": 0.264}, {"measurement": "glycan array binding signal (z-score)", "setting": "[8]", "value": -0.382}, {"measurement": "glycan array binding signal (z-score)", "setting": "[9]", "value": 0.945}, {"measurement": "glycan array binding signal (z-score)", "setting": "GlcNAc(b1-6)GalNAc", "value": 0.291}, {"measurement": "glycan array binding signal (z-score)", "setting": "[10]", "value": -0.674}, {"measurement": "glycan array binding signal (z-score)", "setting": "Kdn(a2-3)Gal(b1-3)GalNAc", "value": 1.08}, {"measurement": "glycan array binding signal (z-score)", "setting": "Kdn(a2-3)Gal(b1-3)GlcNAc", "value": -0.575}, {"measurement": "glycan array binding signal (z-score)", "setting": "Kdn(a2-3)Gal(b1-4)Glc", "value": 0.31}, {"measurement": "glycan array binding signal (z-score)", "setting": "Kdn(a2-3)Gal(b1-4)GlcNAc", "value": 1.39}, {"measurement": "glycan array binding signal (z-score)", "setting": "[11]", "value": -0.275}, {"measurement": "glycan array binding signal (z-score)", "setting": "Kdn(a2-6)Gal(b1-4)GlcNAc", "value": -0.737}, {"measurement": "glycan array binding signal (z-score)", "setting": "[12]", "value": -0.879}, {"measurement": "glycan array binding signal (z-score)", "setting": "[13]", "value": 0.535}, {"measurement": "glycan array binding signal (z-score)", "setting": "Man(a1-2)Man(a1-3)Man", "value": -0.138}, {"measurement": "glycan array binding signal (z-score)", "setting": "[14]", "value": -0.905}, {"measurement": "glycan array binding signal (z-score)", "setting": "[15]", "value": -0.858}, {"measurement": "glycan array binding signal (z-score)", "setting": "[16]", "value": -0.884}, {"measurement": "glycan array binding signal (z-score)", "setting": "[17]", "value": -0.917}, {"measurement": "glycan array binding signal (z-score)", "setting": "[18]", "value": -0.62}, {"measurement": "glycan array binding signal (z-score)", "setting": "[19]", "value": 0.518}, {"measurement": "glycan array binding signal (z-score)", "setting": "Man(a1-3)[Man(a1-6)]Man", "value": -0.808}, {"measurement": "glycan array binding signal (z-score)", "setting": "[20]", "value": 1.23}, {"measurement": "glycan array binding signal (z-score)", "setting": "[21]", "value": 0.338}, {"measurement": "glycan array binding signal (z-score)", "setting": "[22]", "value": 1.5}, {"measurement": "glycan array binding signal (z-score)", "setting": "[23]", "value": -0.71}, {"measurement": "glycan array binding signal (z-score)", "setting": "[24]", "value": -0.887}, {"measurement": "glycan array binding signal (z-score)", "setting": "Man(a1-6)Man", "value": -0.62}, {"measurement": "glycan array binding signal (z-score)", "setting": "Man(b1-4)GlcNAc", "value": 0.586}, {"measurement": "glycan array binding signal (z-score)", "setting": "MurNAc(b1-4)GlcNAc", "value": -0.784}, {"measurement": "glycan array binding signal (z-score)", "setting": "Neu5Ac(a2-3)Gal", "value": -0.729}]}
